Several values for one entry are separate records, joined by “and”; a condition that tells them apart may be missing. Equal values may be shown once. Marks after values point to notes of the source that are not given here.
Legend:
[1] = Monosaccharide composition of preterm and term breast milk and infant formulas by gestational and postnatal age; parameters: species or system human; conditions: for trend of breast milk monosaccharide as gestation progresses towards term, 1-6 d / trend of breast milk monosaccharide as gestation progresses towards term, 1 month / trend of breast milk monosaccharide as gestation progresses towards term, 7-10 d: 30 to ≧38 wks; for trend of breast milk monosaccharide as gestation progresses towards term, 1-6 d: milk at 1-6 d; for trend of breast milk monosaccharide as gestation progresses towards term, 1 month: milk at 1 month; for trend of breast milk monosaccharide as gestation progresses towards term, 7-10 d: milk at 7-10 d; for Breast milk monosaccharide at term adjusted age, Preterm (30-37 wks): M±SD; for Breast milk monosaccharide, Term (38-41 wks): term milk at day 1-6, M±SD; for presence in infant formulas: preterm, preterm post-discharge, term and soy formulas
[2] = Breast milk monosaccharides by maternal Lewis blood-group phenotype (anion exchange chromatography); parameters: species or system human; conditions: for Breast milk monosaccharide, Term, Lewis non-secretor types (a+/−, b−): d. 1-6, n = 5, M±SD; for Breast milk monosaccharide, Term, Lewis secretor (a−, b+): d. 1-6, n = 6, M±SD; for Breast milk monosaccharide, Term, combined Lewis secretor/non-secretor types: d. 1-6, n = 11, M±SD; for Breast milk monosaccharide, Preterm, combined Lewis secretor/non-secretor types: d. 1-6, n = 20, M±SD; for Breast milk monosaccharide, Preterm, combined Lewis types: n = 12, M±SD
[3] = Wang et al., 2001; cited from earlier work

SMILES	trend of breast milk monosaccharide as gestation progresses towards term, 1-6 d [1]	trend of breast milk monosaccharide as gestation progresses towards term, 1 month [1]	trend of breast milk monosaccharide as gestation progresses towards term, 7-10 d [1]	Breast milk monosaccharide at term adjusted age, Preterm (30-37 wks) [1]	Breast milk monosaccharide, Term (38-41 wks) [1]	Breast milk monosaccharide, Term, Lewis non-secretor types (a+/−, b−) [2]	Breast milk monosaccharide, Term, Lewis secretor (a−, b+) [2]	Breast milk monosaccharide, Preterm, Lewis secretor (a−, b+) ([2]; d. 1-6, n = 7, M±SD)	Breast milk monosaccharide, Term, combined Lewis secretor/non-secretor types [2]	Breast milk monosaccharide, Preterm, Lewis non-secretor types (a+/−, b−) ([2]; d. 1-6, n = 13, M±SD)	Breast milk monosaccharide, Preterm, combined Lewis secretor/non-secretor types [2]	Breast milk monosaccharide, Preterm, Lewis secretor (a−, b+) ([2]; term adjusted age, n = 4, M±SD)	Breast milk monosaccharide, Preterm, Lewis non-secretor types (a+/−, b−) ([2]; term adjusted age, n = 8, M±SD)	Breast milk monosaccharide, Preterm, combined Lewis types ([2]; term adjusted age)	change in preterm milk (vs. term), Birth, Lewis Combined ([2]; significant changes only)	change in term adjusted age milk (vs. term), Lewis Combined ([2]; significant changes only)	change in term adjusted age milk (vs. term), Non-secretor types ([2]; significant changes only)	further results
C[C@H](O)[C@@H](O)[C@@H](O)[C@H](O)C=O [Fucose, L-fucose]	↑	=	↑	1777 ± 1008 mg/L	2080 ± 1501 mg/L	1265 ± 578 mg/L	2760 ± 1738 mg/L	3122 ± 1020 mg/L	2080 ± 1501 mg/L	1146 ± 448 mg/L	1838 ± 1179 mg/L	2783 ± 774 mg/L	1274 ± 687 mg/L	1777 ± 1008 mg/L				
N[C@H]1C(O)O[C@H](CO)[C@H](O)[C@@H]1O (stereo partly shown) [Galactosamine, galactosamine]	↑	↑	=	152 ± 65 mg/L	345 ± 82 mg/L	319 ± 94 mg/L	366 ± 72 mg/L	348 ± 169 mg/L	345 ± 82 mg/L	179 ± 41 mg/L	238 ± 130 mg/L	196 ± 88 mg/L	129 ± 40 mg/L	152 ± 65 mg/L	↓	↓	↓	change in preterm milk (vs. term), Birth, Non-secretor types ([2]; significant changes only): ↓; change in term adjusted age milk (vs. term), Secretor ([2]; significant changes only): ↓
O=C[C@H](O)[C@@H](O)[C@@H](O)[C@H](O)CO [Galactose, D-galactose]	=	=	↑	27044 ± 4424 mg/L	23381 ± 2927 mg/L	24690 ± 2234 mg/L	22290 ± 3162 mg/L and 22291 ± 3162 mg/L	24165 ± 3369 mg/L	23381 ± 2927 mg/L	24302 ± 3105 mg/L	24254 ± 3111 mg/L	26540 ± 5707 mg/L	27296 ± 4071 mg/L	27044 ± 4424 mg/L		↑		presence in infant formulas [1]: found in all infant formulas tested
N[C@H]1C(O)O[C@H](CO)[C@@H](O)[C@@H]1O (stereo partly shown) [Glucosamine, glucosamine]	↑	↑	↑	4318 ± 2204 mg/L	8192 ± 2024 mg/L	7642 ± 2420 mg/L	8650 ± 1718 mg/L	6548 ± 2744 mg/L	8192 ± 2024 mg/L	4360 ± 1702 mg/L	5125 ± 2314 mg/L	5223 ± 2380 mg/L	3865 ± 2121 mg/L	4318 ± 2204 mg/L	↓	↓	↓	change in preterm milk (vs. term), Birth, Non-secretor types ([2]; significant changes only): ↓; change in term adjusted age milk (vs. term), Secretor ([2]; significant changes only): ↓
O=C[C@H](O)[C@@H](O)[C@H](O)[C@H](O)CO [Glucose, D-glucose]	↓	=	↑	28718 ± 5650 mg/L	21404 ± 4751 mg/L	23616 ± 2451 mg/L	19562 ± 5601 mg/L	24173 ± 3907 mg/L	21404 ± 4751 mg/L	25006 ± 4352 mg/L	24714 ± 4117 mg/L	27251 ± 6902 mg/L	29452 ± 5283 mg/L	28718 ± 5650 mg/L	↑	↑	↑	presence in infant formulas [1]: found in all infant formulas tested
O=C[C@@H](O)[C@@H](O)[C@H](O)[C@H](O)CO [Mannose, mannose]	↑	↑	↑	131 ± 141 mg/L	78 ± 105 mg/L	78 ± 63 mg/L	78 ± 138 mg/L	126 ± 88 mg/L	78 ± 105 mg/L	108 ± 102 mg/L	115 ± 96 mg/L	92 ± 45 mg/L	151 ± 171 mg/L	131 ± 141 mg/L				
CC(=O)N[C@H]1[C@H]([C@H](O)[C@H](O)CO)OC(O)(C(=O)O)C[C@@H]1O (stereo partly shown) [Sialic Acid, N-acetylneuraminic acid]	↓		=	514 ± 176 mg/L	749 ± 200 mg/L	860 ± 207 mg/L	658 ± 154 mg/L	1008 ± 311 mg/L	749 ± 200 mg/L	969 ± 247 mg/L	983 ± 263 mg/L	537 ± 128 mg/L	503 ± 203 mg/L	514 ± 176 mg/L	↑	↓	↓	Sialic acid content, Preterm Breast Milk [3]: .977^a mg/ml; change in preterm milk (vs. term), Birth, Secretor ([2]; significant changes only): ↑
